Values of other authors in patent US20100160306A1, “Acylated Piperidine Derivatives as Melanocortin-4 Receptor Agonists” (priority 2005, published 2010).
Some of these results come from one statement about several compounds together. Some ranges recur; such a range may be that of the whole group of compounds.

For `CCCCCCCCCCC[C@@H](C[C@@H]1OC(=O)[C@H]1CCCCCC)OC(=O)[C@H](CC(C)C)NC=O` [orlistat], which “weight loss, % of body weight for drug compared to placebo” value (monotherapy) is on record?
The value was 5%-10%.

What about the “reduction of body weight” value (over a 6 month or a 1 year period) of the same molecule?
Its value is “less than 10%”.
